Values of other authors in patent publication US11933866B2, “Magnetic resonance maps for analyzing brain tissue” (Tel HaShomer Medical Research Infrastructure and Services …, priority 2013, dated 2024).
At least one structure is not confirmed: it was looked up by name or label, or the drawing left a doubt.

Test system: glioblastoma
Conditions: TMZ during radiotherapy and for six months post radiotherapy; cited from earlier work

Cn1nnc2c(C(N)=O)ncn2c1=O [temozolomide]
median survival: significant increase in median survival
